Source: US20230151091A1 (NEW YORK UNIVERSITY, published 2023)
These are yes or no findings as the source states them, for the method shown. Some binding calls cover weakened binding; strength is not graded here.

T1: human MuSK (human, UniProt O15146 24-495)
T1 construct: Recombinant protein coated on ELISA plates (R&D Systems cat. 10189-MK) or on the Biacore chip; also called human muscle-specific tyrosine protein kinase; full length human MuSK
T1 sequence: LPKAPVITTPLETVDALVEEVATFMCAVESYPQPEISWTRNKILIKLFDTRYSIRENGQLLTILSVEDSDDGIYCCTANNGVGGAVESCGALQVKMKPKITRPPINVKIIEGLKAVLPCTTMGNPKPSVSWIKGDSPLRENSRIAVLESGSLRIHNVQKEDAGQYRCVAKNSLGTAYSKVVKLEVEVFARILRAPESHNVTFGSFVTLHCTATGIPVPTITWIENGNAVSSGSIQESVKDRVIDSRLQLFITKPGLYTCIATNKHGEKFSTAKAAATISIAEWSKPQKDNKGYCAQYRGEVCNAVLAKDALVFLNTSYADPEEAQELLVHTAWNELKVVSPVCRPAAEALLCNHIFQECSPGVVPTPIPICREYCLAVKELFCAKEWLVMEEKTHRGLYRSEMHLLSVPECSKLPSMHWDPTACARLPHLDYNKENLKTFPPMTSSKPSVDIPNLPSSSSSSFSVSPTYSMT

T2: mouse MuSK (mouse, UniProt Q61006 22-494, limits assumed)
T2 construct: Coated on ELISA plates or on the Biacore chip; also called full length mouse MuSK; mouse MuSK (in house produced in HEK293 cells)
T2 sequence (looked up): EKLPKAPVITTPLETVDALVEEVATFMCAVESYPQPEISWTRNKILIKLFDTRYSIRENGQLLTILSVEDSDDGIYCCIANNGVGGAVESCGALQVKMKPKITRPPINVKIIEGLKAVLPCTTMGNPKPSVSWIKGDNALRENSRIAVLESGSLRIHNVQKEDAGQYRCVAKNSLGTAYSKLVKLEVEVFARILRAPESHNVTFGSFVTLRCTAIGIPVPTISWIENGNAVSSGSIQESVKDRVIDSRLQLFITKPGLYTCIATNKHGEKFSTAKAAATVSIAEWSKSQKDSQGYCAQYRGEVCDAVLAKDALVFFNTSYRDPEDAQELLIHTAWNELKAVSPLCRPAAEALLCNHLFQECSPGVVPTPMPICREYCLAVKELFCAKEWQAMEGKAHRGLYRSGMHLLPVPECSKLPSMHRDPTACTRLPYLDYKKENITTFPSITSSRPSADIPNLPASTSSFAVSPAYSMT

B1: 3B2g1m1 (antibody, human IgG1, V domains shown)
VH: EVQLLESGGGLVQPGGSLRLSCAASGFTFSDYGMSWVRQAPGKGLEWVSAIPWSGGSTYYKESVKGRFTISRDNSKNTLYLQMNSLRAEDTAVYYCAKRSGRIAFGALDAWGQGTLVTVSS
VL: QTVVTQEPSFSVSPGGTVTLTCGLSSGSVTSSNYPDWYQQTPGQAPRTLIYSTDSRHSGVPDRFSGSILGNKAALTITGAQADDESDYYCGLYMYSGSKNYVFGGGTKLTVL
notes: human IgG1-LALA backbone; produced in HEK293 cells
B2: 3B2g2m1 (antibody, human IgG1, V domains shown)
VH: EVQLLESGGGLVQPGGSLRLSCAASGFTFSDYGMSWVRQAPGKGLEWVSAIPWSGGSTYYKESVKGRFTISRDNSKNTLYLQMNSLRAEDTAVYYCAKRSGRIAFGALDAWGQGTLVTVSS
VL: QTVVTQEPSFSVSPGGTVTLTCGLSSGSVTSSNYPDWYQQTPGQAPRTLIYSTDSRHSGVPDRFSGSILGNKAALTITGAQADDESDYYCGLYSYSGSKNYVFGGGTKLTVL
notes: human IgG1-LALA backbone; produced in HEK293 cells; also called MuSK agonist antibody 3B2g2m1; MuSK-mAb 3B2g2m1
B3: 31G2 (antibody, V domains shown)
VH: ELQLVESGGGLVQPGGSLRLSCAASGFTFDDYGMSWVRQAPGKGLEWVSAIPWNGGSTYYKESVKGRFTISRDNAKKTLYLQMNSLKSEDTAVYYCAKRSGRIAFGALDAWGQGTLVTVSS
VL: QAVVTQEPSLSVSPGGTVTLTCGLSSGSVTSSNYPDWYQQTPGQAPRALIYSTNSRLSGVPSRFSGSFSGNKAALTITGAQPEDEADYYCALYMGSGSRNYVFGGGTKLTVL
B4: 31B7 (antibody, V domains shown)
VH: ELQLVESGGGLVQPGGSLRLSCAASGFTFDDYGMSWVRQAPGKGLEWVSAIPWNGGSTYYKESVKGRFTISRDNAKKTLYLQMNSLKSEDTAVYYCAKRSGRIAFGALDAWGQGTLVTVSS
VL: QAVVTQEPSLSVSPGGTVTLTCGLSSGSVTSSNYPDWYQQTPGQAPRALIYSTNSRLSGVPSRFSGSFSGNKAALTITGAQPEDEADYYCALYMGSESRNYVFGGGTKLTVL
B5: 3C4 (antibody, V domains shown)
VH: ELQLVESGGGLVQPGGSLRLSCAASGFTFDDYGMSWVRQAPGKGLEWVSAIPWNGGSTYYKESVKGRFTISRDNAKKTLYLQMNSLKSEDTAVYYCAKRSGRIAFGALDAWGQGTLVTVSS
VL: QAVVTQEPSLSVSPGGTVTLTCGLSSGSVTASNYPDWYQQTPGQAPRGLIYSTDSRHSGVPSRFSGSISGNKAALTITGAQPEDEADYYCALYMYSDSKLYVFGGGTKLTVL
B6: 7G4 (antibody, V domains shown)
VH: ELQLVESGGGLVQPGGSLRLSCAASGFTFDDYGMSWVRQAPGKGLEWVSAIPWNGGSTYYKESVKGRFTISRDNAKKTLYLQMNSLKSEDTAVYYCAKRSGRIAFGALDAWGQGTLVTVSS
VL: QAVVTQEPSLSVSPGGTVTLTCGLSSGSVTSSNYPDWYQQTPGQAPRALIYSTNSRHSGVPSRFSGSISGNKAALTITGAQPEDEADYYCALYMGRGSNKDYVFGGGTKLTVL
B7: 3G3 (antibody, V domains shown)
VH: ELQLVESGGGLVQPGGSLRLSCAASGFTFDDYGMSWVRQAPGKGLEWVSAIPWNGGSTYYKESVKGRFTISRDNAKKTLYLQMNSLKSEDTAVYYCAKRSGRIAFGALDAWGQGTLVTVSS
VL: QTVVTQEPSLSVSPGGTVTLTCGLSSGSVTSSNYPDWYQQTPGQAPRALIYSTNSRHSGVPSRFSGSTSGNKAALTITGAQPEDEADYYCALYMGSDIRNYVFGGGTKLTVL
B8: 23B6 (antibody, V domains shown)
VH: QVQVQESGPGLVKPSQTLSLTCTVSGGSITARYYSWSWIRQPPGKGLEWMGVIAYDGSTYYSPSLKSRTSISRDTSKNQFSLHLSSVTPDDTAVYYCARGSSRVAAAFDSWGQGTQVTVSS
VL: SYELTQSPSVSVALRQTAKITCGGDNIGSKNAQWYQQKPGQAPVMVLYADSRRPSGIPERFSGSNSGNTATLTISGAQAEDEADYYCHVWDSSTNAWFGGGTHLTVL
B9: 30E1 Fab (Fab, V domains shown)
VH: QVQVQESGPGLVKPSQTLSLTCTVSGGSITARYYSWSWIRQPPGKGLEWMGVIAYDGSTYYSPSLKSRTSISRDTSKNQFSLHLSSVTPDDTAVYYCARGSSRVAAAFDSWGQGTQVTVSS
VL: SYELTQSPSVSVALRRTAKITCGGDNIGSKNTQWYQQKPGQAPVLVIYADSRRPSGIPERFSGSNSGNTATLTISGAQAEDEADYYCHVWDSSTNAWFGGGTHLTVL
notes: Fab format
B10: 30A11 Fab (Fab, V domains shown)
VH: QVQVQESGPGLVKPSQTLSLTCTVSGGSITARYYSWSWIRQPPGKGLEWMGVIAYDGSTYYSPSLKSRTSISRDTSKNQFSLHLSSVTPDDTAVYYCARGSSRVAAAFDSWGQGTQVTVSS
VL: SYELTQSPSVTVALRQTAKITCGGDNIASKNVQWYQQKPGQAPSLVIWADSRRPSGIPVRFSGSNFGNTATLTISGAQAEDEADYYCQVWDSSTNVAVFGGGTHLTVL
notes: Fab format
B11: 4C11 (antibody, V domains shown)
VH: EVQLVESGGGLVQPGGSLSLSCVASGFTFSLYYMNWVRQAPGKGLEWLSVIDTHSIAYYADSVKGRFTISRDNVKNTLYLQLNNLKPEDTALYYCVLGRTALVRWGQGTQVTVSS
VL: DIVMTQSPSSVTASAGERVTINCRSSQSVLYSSNQKNYLNWYQQRLGQSPRLLIYWASARESGVPDRFSGSGSTTNFTLTISSFQPEDAAVYYCQQSYKPPYGFGSGTRLEIK
B12: 7G12 (antibody, V domains shown)
VH: EVQLVESGGGLVQPGGSLSLSCVASGFTFSLYYMNWVRQAPGKGLEWLSVIDTHSIAYYADSVKGRFTISRDNVKNTLYLQLNNLKPEDTALYYCVLGRTALVRWGQGTQVTVSS
VL: EIVLTQSPNSVTASVGEKVTINCKSSQRVQLGSNQKSYLNWYQQRPGQSPRLLIYYASTQQSGIPDRFSGSGSATDFTLTINSVQPEDAAVYYCQQGYSAPFTFGQGTKVELK
B13: 7B8 (antibody, V domains shown)
VH: EVQLVESGGGLVQPGGSLSLSCVASGFTFSLYYMNWVRQAPGKGLEWLSVIDTHSIAYYADSVKGRFTISRDNVKNTLYLQLNNLKPEDTALYYCVLGRTALVRWGQGTQVTVSS
VL: EIVLTQSPSSVTASAGEKVTINCKSSQSVLYNQKNYLAWYQQRPGQSPRLLIYWASTRESGVPDRFSGSGSTTDFTLTISSFQPEDVAVYYCQQGYSVPYTFGSGTRLEIK
B14: 7A12 (antibody, V domains shown)
VH: EVQLVESGGGLVQPGGSLSLSCVASGFTFSLYYMNWVRQAPGKGLEWLSVIDTHSIAYYADSVKGRFTISRDNVKNTLYLQLNNLKPEDTALYYCVLGRTALVRWGQGTQVTVSS
VL: EIVLTQSPSSVTASIGEKVTINCESSQSVLYNQKNYLNWYQQRPGQSPRLLIYWASTRQSGVPDRFSGSGSGSTTDFTLTISSFQPEDVAVYYCQQAYNAPLTFGPGTKVELK

Assays:
[1] = biological target: T1, human MuSK; assay: ELISA, plate coated with human MuSK, dilution series of mAb, OD450
[2] = biological target: T1, human MuSK; assay: ELISA on coated MuSK
[3] = biological target: T2, mouse MuSK; assay: ELISA, coated MuSK 0.2 ug/ml
[4] = biological target: T2, mouse MuSK; assay: Biacore, Fab in periplasmic extract on CM5 chip coated with full length mouse MuSK
[5] = biological target: T1, human MuSK; assay: Biacore, Fab in periplasmic extract on CM5 chip coated with full length human MuSK

binding [1] | binding [2] | binding [3] | binding [4] | binding [5] | Binder
binds | binds | – | – | – | B1
binds | binds | – | – | – | B2
– | – | binds | binds | binds | B3
– | – | binds | binds | binds | B4
– | – | binds | binds | binds | B5
– | – | binds | binds | binds | B6
– | – | binds | binds | binds | B7
– | – | binds | binds | binds | B8
– | – | – | – | binds | B9
– | – | – | – | binds | B10
– | – | binds | binds | binds | B11
– | – | binds | binds | binds | B12
– | – | binds | binds | binds | B13
– | – | binds | binds | binds | B14
